# PubChem BioAssay AID1259425 | University of Nebraska Medical Center – 2018
# Purpose: 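Seek colon cancer weak points whose silencing resembles KSR1 loss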 (primary screen)
# Cells: HCT116 human colon cancer cells
# Reagent: siRNA pool against human genes, 50 nM siRNA
# Measurement: 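mRNA of six signature genes measured together by branched-DNA assay after 50 nM siRNA pool, blank removed, divided by geometric mean of two housekeeping genes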
# Reading the numbers: BNIP3L mRNA: higher = more BNIP3L transcript after knockdown; NDRG1 mRNA: higher = more NDRG1 transcript after knockdown; BNIP3 mRNA: higher = more BNIP3 transcript after knockdown; ALDOC mRNA: higher = more ALDOC transcript after knockdown; ACSL5 mRNA: higher = more ACSL5 transcript after knockdown
# This is an unselected part of about 14,000 reagents. Reagent sequences are not shown. Not given: the time to read-out.
target,"BNIP3L mRNA, set 1","NDRG1 mRNA, set 1","BNIP3 mRNA, set 1","ALDOC mRNA, set 1","ACSL5 mRNA, set 1"
CREBBP,0.153,0.138,0.325,0.0387,0.138
CGB2,0.103,0.162,0.288,0.0465,0.269
GPR132,0.112,0.262,0.329,0.0178,0.189
TK2,0.18,0.221,0.476,0.0481,0.123
MRPL4,0.215,1.01,0.493,0.0714,0.287
PITPNM2,0.105,0.272,0.338,0.0143,0.394
RAP1B,0.13,0.245,0.354,0.0104,0.236
RGS2,0.206,0.211,0.435,0.0372,0.182
CPNE3,0.0573,0.126,0.23,0.0236,0.187
CCDC68,0.209,0.408,0.546,0.0665,0.153
BCAS2,0.178,0.191,0.197,0.043,0.2
ROBO1,0.0833,0.145,0.312,0.0208,0.0958
CC2D1A,0.66,2.44,2.7,0.136,0.469
ARPC3,0.0803,0.171,0.228,0.0243,0.2

Quoted from the entries so far, 4 entries:
target,"BNIP3L mRNA, set 1","NDRG1 mRNA, set 1","BNIP3 mRNA, set 1","ALDOC mRNA, set 1","ACSL5 mRNA, set 1"
MRPL4,0.215,1.01,0.493,0.0714,0.287
PITPNM2,0.105,0.272,0.338,0.0143,0.394
RAP1B,0.13,0.245,0.354,0.0104,0.236
RGS2,0.206,0.211,0.435,0.0372,0.182

Further entries follow:
target,"BNIP3L mRNA, set 1","NDRG1 mRNA, set 1","BNIP3 mRNA, set 1","ALDOC mRNA, set 1","ACSL5 mRNA, set 1"
MYL11,0.185,0.38,0.372,0.0401,0.192
TPM3,0.113,0.316,0.169,0.0391,0.295
SESN1,0.223,0.287,0.334,0.0633,0.178
G6PD,0.0617,0.205,0.285,0.0315,0.377
C1orf35,0.0858,0.248,0.258,0.0208,0.204
CSNK2A2,0.0337,0.551,0.309,0.00787,0.29
KDR,0.179,0.113,0.648,0.0257,0.163
CUEDC2,0.149,0.248,0.342,0.0473,0.303
ATP6AP1,0.402,0.25,0.404,0.119,0.141
TENM4,0.0843,0.208,0.462,0.0437,0.123
PLAC1,0.0857,0.258,0.15,0.0254,0.171
HAVCR1,0.0643,0.207,0.256,0.0228,0.163
PRM2,1.5,2.65,3.64,0.17,0.0849
ERGIC3,0.272,0.232,0.324,0.0144,0.105
KCND1,0.0611,0.177,0.288,0.014,0.116
ARID5A,0.105,0.207,0.149,0.0162,0.117
GOLM1,1.09,1.75,3.33,0.479,0.0834
BCS1L,0.16,0.293,0.203,0.00653,0.343
STIL,0.0899,0.197,0.269,0.0422,0.177
TLR9,0.118,0.103,0.39,0.024,0.0381
